This is an account of results in paper PMC10854748.

The chains behind the UniProt entries cited, without tags or fusion partners.
UniProt P78527: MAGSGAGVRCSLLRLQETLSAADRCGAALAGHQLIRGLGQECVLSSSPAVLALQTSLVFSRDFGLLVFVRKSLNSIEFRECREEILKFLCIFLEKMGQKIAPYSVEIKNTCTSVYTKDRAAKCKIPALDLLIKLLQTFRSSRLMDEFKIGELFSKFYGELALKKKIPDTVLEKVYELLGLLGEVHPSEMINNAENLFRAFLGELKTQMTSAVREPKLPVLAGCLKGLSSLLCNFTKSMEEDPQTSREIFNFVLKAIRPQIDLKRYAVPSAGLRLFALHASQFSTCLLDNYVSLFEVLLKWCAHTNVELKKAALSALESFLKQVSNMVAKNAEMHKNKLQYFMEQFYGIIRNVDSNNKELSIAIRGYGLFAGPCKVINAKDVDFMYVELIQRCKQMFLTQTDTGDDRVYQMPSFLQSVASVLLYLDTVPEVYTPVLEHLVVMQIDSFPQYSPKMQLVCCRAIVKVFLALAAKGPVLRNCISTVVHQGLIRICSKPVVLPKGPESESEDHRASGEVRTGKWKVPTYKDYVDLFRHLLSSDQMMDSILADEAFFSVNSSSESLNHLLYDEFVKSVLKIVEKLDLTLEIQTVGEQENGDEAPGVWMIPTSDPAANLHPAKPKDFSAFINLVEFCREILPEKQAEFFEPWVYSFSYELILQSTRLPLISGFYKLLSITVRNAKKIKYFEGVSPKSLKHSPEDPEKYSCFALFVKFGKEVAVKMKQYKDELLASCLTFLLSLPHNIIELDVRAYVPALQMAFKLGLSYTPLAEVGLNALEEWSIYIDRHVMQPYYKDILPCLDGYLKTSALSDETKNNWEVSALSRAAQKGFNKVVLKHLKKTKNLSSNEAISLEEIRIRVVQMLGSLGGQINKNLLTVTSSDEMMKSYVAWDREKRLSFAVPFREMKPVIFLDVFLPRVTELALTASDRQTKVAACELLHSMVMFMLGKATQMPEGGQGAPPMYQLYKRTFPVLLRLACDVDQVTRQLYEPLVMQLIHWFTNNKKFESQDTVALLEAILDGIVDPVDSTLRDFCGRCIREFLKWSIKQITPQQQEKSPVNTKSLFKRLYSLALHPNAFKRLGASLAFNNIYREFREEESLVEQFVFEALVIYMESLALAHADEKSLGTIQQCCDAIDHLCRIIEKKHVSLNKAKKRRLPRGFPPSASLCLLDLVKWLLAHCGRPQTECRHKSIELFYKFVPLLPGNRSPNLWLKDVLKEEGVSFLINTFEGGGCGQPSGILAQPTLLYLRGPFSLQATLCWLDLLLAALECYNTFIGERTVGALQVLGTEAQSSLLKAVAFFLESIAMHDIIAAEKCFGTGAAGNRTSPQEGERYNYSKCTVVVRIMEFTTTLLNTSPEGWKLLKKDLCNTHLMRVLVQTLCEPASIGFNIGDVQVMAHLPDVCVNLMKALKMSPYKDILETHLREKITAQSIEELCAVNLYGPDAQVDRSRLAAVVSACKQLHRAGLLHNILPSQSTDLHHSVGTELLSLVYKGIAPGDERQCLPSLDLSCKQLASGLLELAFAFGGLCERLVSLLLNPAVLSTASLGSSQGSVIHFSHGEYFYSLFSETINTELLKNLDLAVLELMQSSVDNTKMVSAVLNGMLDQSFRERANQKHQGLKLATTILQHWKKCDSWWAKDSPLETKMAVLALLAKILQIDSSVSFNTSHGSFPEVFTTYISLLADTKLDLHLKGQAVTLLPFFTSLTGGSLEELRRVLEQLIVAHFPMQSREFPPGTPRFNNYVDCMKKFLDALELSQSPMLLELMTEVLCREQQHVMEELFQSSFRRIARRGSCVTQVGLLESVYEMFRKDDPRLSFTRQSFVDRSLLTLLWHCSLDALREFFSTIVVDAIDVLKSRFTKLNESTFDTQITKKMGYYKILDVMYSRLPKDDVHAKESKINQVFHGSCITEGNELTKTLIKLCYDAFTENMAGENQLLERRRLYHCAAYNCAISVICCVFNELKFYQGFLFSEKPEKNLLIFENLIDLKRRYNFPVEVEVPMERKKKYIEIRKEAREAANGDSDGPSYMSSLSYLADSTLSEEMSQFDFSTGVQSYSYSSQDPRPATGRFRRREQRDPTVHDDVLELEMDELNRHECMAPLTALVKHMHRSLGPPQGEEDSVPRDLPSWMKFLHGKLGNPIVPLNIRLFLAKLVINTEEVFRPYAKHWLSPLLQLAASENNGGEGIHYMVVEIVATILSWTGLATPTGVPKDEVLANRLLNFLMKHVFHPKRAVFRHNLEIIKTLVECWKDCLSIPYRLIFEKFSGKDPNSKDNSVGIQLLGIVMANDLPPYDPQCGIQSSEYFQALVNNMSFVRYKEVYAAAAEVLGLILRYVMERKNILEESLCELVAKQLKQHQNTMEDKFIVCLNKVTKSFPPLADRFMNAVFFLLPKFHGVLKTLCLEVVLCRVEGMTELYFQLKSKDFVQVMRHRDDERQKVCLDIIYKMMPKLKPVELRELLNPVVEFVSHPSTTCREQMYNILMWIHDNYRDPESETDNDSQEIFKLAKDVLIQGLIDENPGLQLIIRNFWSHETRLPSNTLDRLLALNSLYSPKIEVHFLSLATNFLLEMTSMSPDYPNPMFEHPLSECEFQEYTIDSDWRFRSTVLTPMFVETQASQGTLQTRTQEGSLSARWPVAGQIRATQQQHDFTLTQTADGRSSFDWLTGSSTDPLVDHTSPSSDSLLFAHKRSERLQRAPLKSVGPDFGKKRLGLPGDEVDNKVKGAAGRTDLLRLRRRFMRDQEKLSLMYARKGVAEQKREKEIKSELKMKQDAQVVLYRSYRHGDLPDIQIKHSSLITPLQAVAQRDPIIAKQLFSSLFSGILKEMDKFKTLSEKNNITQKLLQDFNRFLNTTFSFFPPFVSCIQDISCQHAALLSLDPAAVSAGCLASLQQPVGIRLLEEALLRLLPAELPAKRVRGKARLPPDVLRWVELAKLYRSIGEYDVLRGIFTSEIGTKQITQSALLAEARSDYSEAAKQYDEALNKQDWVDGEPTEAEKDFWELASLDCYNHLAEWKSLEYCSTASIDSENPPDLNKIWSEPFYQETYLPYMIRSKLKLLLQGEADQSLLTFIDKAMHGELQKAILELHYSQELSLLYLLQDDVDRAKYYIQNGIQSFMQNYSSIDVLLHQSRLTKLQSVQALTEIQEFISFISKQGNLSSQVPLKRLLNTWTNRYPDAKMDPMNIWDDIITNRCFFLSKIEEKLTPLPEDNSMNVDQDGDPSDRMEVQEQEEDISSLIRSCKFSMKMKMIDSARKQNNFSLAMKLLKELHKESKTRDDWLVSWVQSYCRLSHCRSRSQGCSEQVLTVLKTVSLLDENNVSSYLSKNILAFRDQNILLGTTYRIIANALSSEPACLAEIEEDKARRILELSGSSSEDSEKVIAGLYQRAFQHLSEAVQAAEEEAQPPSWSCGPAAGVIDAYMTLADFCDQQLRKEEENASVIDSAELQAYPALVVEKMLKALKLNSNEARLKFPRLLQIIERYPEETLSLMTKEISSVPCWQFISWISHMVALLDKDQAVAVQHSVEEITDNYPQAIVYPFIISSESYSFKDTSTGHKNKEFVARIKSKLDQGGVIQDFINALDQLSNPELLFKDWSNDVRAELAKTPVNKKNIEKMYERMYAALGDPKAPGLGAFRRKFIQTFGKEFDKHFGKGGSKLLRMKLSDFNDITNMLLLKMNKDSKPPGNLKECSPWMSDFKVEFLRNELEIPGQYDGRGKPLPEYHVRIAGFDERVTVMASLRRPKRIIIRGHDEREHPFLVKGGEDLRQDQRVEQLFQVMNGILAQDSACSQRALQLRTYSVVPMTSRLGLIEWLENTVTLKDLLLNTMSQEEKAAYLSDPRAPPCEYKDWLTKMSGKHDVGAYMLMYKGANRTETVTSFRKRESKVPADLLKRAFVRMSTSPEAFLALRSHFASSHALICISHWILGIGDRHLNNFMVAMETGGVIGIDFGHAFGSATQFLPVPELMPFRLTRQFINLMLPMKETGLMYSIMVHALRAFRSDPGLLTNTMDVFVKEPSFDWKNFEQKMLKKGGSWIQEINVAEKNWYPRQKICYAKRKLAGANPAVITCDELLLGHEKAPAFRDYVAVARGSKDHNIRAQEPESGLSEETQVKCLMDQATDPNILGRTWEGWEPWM
UniProt P06748: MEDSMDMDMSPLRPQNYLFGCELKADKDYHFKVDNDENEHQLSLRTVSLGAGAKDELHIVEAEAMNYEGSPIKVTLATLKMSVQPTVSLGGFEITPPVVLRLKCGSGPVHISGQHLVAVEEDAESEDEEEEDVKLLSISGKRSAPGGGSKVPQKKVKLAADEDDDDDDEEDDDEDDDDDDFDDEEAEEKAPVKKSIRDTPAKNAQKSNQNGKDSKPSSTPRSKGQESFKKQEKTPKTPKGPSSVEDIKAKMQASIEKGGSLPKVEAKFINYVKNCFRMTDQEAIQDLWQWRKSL
UniProt P09874: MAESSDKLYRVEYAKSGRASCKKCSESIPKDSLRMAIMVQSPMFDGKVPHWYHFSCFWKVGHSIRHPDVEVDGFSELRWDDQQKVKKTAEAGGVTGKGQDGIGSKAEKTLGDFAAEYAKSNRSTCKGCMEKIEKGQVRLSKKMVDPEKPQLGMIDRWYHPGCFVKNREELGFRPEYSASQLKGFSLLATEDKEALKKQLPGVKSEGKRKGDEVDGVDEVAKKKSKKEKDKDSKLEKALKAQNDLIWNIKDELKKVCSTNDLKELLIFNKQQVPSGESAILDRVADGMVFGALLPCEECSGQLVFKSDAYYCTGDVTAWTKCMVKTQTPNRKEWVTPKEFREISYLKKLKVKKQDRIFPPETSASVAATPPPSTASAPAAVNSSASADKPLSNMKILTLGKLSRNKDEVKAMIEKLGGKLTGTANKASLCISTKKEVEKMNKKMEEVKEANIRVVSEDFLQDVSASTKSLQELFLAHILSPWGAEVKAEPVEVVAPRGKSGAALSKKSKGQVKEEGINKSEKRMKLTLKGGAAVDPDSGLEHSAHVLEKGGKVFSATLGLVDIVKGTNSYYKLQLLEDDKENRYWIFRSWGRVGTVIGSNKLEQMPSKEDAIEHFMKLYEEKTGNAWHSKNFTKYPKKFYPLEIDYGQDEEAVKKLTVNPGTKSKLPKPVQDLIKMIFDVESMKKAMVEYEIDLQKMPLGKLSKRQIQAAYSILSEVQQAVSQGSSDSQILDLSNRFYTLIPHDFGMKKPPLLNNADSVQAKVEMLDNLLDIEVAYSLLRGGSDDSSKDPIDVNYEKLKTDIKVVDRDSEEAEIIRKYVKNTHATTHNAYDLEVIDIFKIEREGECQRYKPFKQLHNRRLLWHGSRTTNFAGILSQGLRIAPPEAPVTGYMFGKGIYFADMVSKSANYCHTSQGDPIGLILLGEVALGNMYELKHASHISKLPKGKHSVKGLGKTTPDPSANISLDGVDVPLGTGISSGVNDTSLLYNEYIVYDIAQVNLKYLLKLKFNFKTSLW

These are yes or no findings as the source states them, for the method shown. Binding seen in cells or lysates may run through a third protein. A yes stands for co-enrichment or nearness to the bait. Other partners may have been found. Sequences can lack the tags named with a protein.

The assay concerns the target N-terminally FLAG-HA epitope-tagged human HIRIP3 (e-HIRIP3) (human) (UniProt Q9BW71). The experiment in a line: affinity purification with mass spectrometry; tandem anti-FLAG then anti-HA immunoaffinity purification of e-HIRIP3 from HeLa cytosolic, soluble nuclear and MNase-solubilised chromatin extracts; washes in TGEN-150 (20 mM Tris-HCl pH 7.65, 150 mM NaCl); silver staining and Orbitrap mass spectrometry.

Regarding “DNA-dependent protein kinase catalytic subunit (PRKDC) (from UniProt P78527 1-4128) (enzyme)”, the binding result is “binds”.

In the case of NPM1 (from UniProt P06748 1-294), the binding result is given as “binds”.

Turning to “PARP1 (from UniProt P09874 1-1014) (enzyme)”, the binding result is given as “binds”.
